Literature values in patent US20050244490A1, “Dosing methods for beta-D-2',3'-dideoxy-2',3'-didehydro-5-fluorocytidine antiviral therapy” (priority 2003, published 2005).
At least one compound was matched to its structure with a doubt left.

System: HIV viral load
Conditions: 150 mg BD, duration of dosing 12; cited from earlier work

SMILES: Nc1ccn([C@@H]2CS[C@H](CO)O2)c(=O)n1 [3TC, β-L-2′,3′-dideoxy-3′-thiacytidine]
- Viral Load Decline (log): −1.45 log
